# Test results published in PubChem BioAssay AID540276 (National Center for Advancing Translational Sciences (NCATS), 2011).
# Values joined by “and” are separate entries in the source; they are usually repeats but may differ in a detail not shown here. Identical values can stand only once. Hit rate of the full screen: of about 300,000 compounds, about 5,400 (1.8%) were called active. Inconclusive means that the source gave no clear call. Such entries were picked first, then a sample of the others. The call rests on the fitted dose curve; tested in HEK293 cells. Potencies beside an inconclusive call are fits to weak or partial responses and may not hold up.
# Assay: qHTS for inhibitors of binding or entry into cells for Marburg Virus
# Conditions: Marburg virus pseudotyped entry inhibition, cell reporter; series mostly up to 37.8 µM
# Potency means the concentration at half of the fitted maximal effect.
row,Structure (SMILES),Potency
1,COc1cccc(-c2cc(=O)c3cc(NC(=O)c4ccc(N(C)C)cc4)ccc3[nH]2)c1,"inconclusive: 5.8 µM [inhibitor, full curve, poor fit]"
2,S=c1[nH]nc(Cc2sc(-c3ccccc3)nc2-c2ccccc2)o1,"inconclusive: 14.1 µM [activator, single point]"
3,Nc1c(NC(=O)CC[n+]2ccccc2)cccc1[N+](=O)[O-],inactive
4,COc1ccc(Cc2nnc(NC(=O)c3ccccc3F)s2)cc1,"inconclusive: 0.112 µM [inhibitor, full curve, poor fit]"
5,CCOC(=O)c1ccc(NC(=O)CCCn2nc(C)c3sc4ccccc4c3c2=O)cc1,inactive
6,CCOC(=O)C1(Cc2cccc(Cl)c2)CCCN(C(=O)c2cc(CC)on2)C1 (configuration not stated),"inconclusive: 10 µM [inhibitor, partial curve, poor fit]"
7,CC(=O)Nc1ccccc1Nc1cc(C#N)c(C#N)cc1[N+](=O)[O-],inactive
8,CCOC(=O)c1ccc(-c2ccc(/C=N/NC(=O)c3cncc(Br)c3)o2)cc1,inactive
9,CCC(=O)NNc1ncnc2c1cnn2-c1ccccc1,inactive
10,COc1ccc(Br)cc1S(=O)(=O)N1CCN=C1c1ccccc1,inactive
11,O=C(Cc1ccc([N+](=O)[O-])cc1)Nc1ccc2c(c1)CCC2,inactive
12,O=C1C(C=Nc2ccccc2)=C(O)c2ccccc21,"inconclusive: 35.5 µM [inhibitor, single point]"
13,CCSc1nnc(-c2c[nH]c3ccccc23)o1,"inconclusive: 1 µM [activator, full curve, poor fit]"
14,Cn1c(=O)oc2cc(S(=O)(=O)N3CCC(C(=O)N4CCN(c5ccccc5)CC4)CC3)ccc21,inactive
15,O=C(Nc1ccccc1Cl)c1cnccn1,"inconclusive: 29.1 µM [activator, single point]"
16,COc1ccccc1/C=C/C1=NC(=C\N(C)C)/C(=O)O1,"inconclusive: 14.1 µM [activator, partial curve, poor fit]"
17,CCC(=O)N1CCc2cc(Br)cc(S(=O)(=O)CCC(=O)Nc3ccc(CC)cc3)c21,inactive
18,COc1ccccc1N1CCN(C(c2cccs2)C(C)NS(=O)(=O)c2ccccc2)CC1 (configuration not stated),inactive
19,c1ccc(N2CCN(c3c4c(nc5ncnn35)CCC4)CC2)cc1,"inconclusive: 11.6 µM [inhibitor, partial curve]"
20,CCOC(=O)c1ccc(N2C(=O)c3[nH]nc(-c4ccc(C)cc4)c3C2c2ccc(O)cc2)cc1 (configuration not stated),active: 10 µM
21,CCN(CC)C(=O)Nc1cnc2ccccc2c1,inactive
22,Cc1ccccc1CSc1ncc(Cl)c(C(=O)NCc2ccccc2)n1,inactive
23,Cn1ccs/c1=N\S(=O)(=O)c1ccc(C(C)(C)C)cc1,"inconclusive: 6.31 µM [activator, partial curve]"
24,COc1ccc(C2C3=C(COC3=O)Oc3cc4c(cc32)OCO4)cc1OC (configuration not stated),inactive

row,Structure (SMILES),Potency
1,Cc1ccccc1NC(=O)c1ccno1,"inconclusive: 35.5 µM [inhibitor, single point]"
2,Cc1cc(-c2nn3c(C)nnc3s2)ccc1NC(=O)C(C)(C)C,"inconclusive: 0.517 µM [activator, partial curve, poor fit]"
3,COc1ccc(-n2c(O)c(/C=C3\C=Nc4ccc(Br)cc43)c(=O)[nH]c2=O)cc1,inactive
4,CCOc1ccccc1NC(=O)Nc1cccc(NC(C)=O)c1,inactive
5,Cc1ccc(NC(=O)CC2SCCNC2=O)cc1Cl (configuration not stated),"inconclusive: 18.3 µM [activator, single point]"
6,C(=NN1CCCCCC1)c1ccc2c(c1)OCO2,"inconclusive: 0.316 µM [activator, partial curve, poor fit]"
7,Cc1cccc(OCCCC(=O)Nc2ccc(N(C)C)cc2)c1,inactive
8,O=C(CN1CCc2ccccc2C1)Nc1cc(S(=O)(=O)N2CCOCC2)ccc1N1CCOCC1,"inconclusive: 8.91 µM [inhibitor, partial curve, poor fit]"
9,O=C1COc2ccc(S(=O)(=O)Nc3ccc(F)cc3)cc2N1,inactive
10,COc1ccc(NC(=O)c2ocnc2C)cc1OC,inactive
11,O=C(CCC(=O)Nc1ccccc1)N/N=C/c1ccco1,"inconclusive: 6.51 µM [inhibitor, single point]"
12,COCOCCn1cc(CN2CCS(=O)(=O)N(Cc3ccc(-c4ccc(F)cc4)cc3)C(CC(C)C)C2=O)nn1 (configuration not stated),"inconclusive: 0.025 µM [activator, full curve, poor fit]"
13,Cc1cc(=O)oc(C)c1C(=O)NCCCN1CCN(c2ccc(F)cc2)CC1,"inconclusive: 29.1 µM [inhibitor, single point]"
14,CCOC(=O)c1nnn(CC(=O)NC(=O)Nc2ccccc2F)c1C(=O)OCC,"inconclusive: 12.6 µM [activator, partial curve, poor fit]"
15,Cc1ccc(Cl)cc1NC(=O)c1csnn1,"inconclusive: 5.01 µM [inhibitor, single point]"
16,CC(=O)N/C(=N/c1nc(C)cc(C)n1)Nc1ccc(C)cc1C,"inconclusive: 3.16 µM [inhibitor, partial curve, poor fit]"
17,CC(=O)OC1=C(C(C)=O)N(Cc2ccccc2)S(=O)(=O)c2ccccc21,"inconclusive: 1.12 µM [inhibitor, partial curve, poor fit]"
18,CCNc1ccc(Br)cc(C(=O)/C=C/c2ccc(Cl)cc2Cl)c1=O,"inconclusive: 23.1 µM [inhibitor, single point]"
19,Cc1c(C(=O)N(Cc2ccccc2)Cc2cccs2)cnn1-c1ccc(Cl)cc1,"inconclusive: 0.631 µM [inhibitor, full curve, poor fit]"
20,COCCNc1ccc(N2C(=O)CCCC2=O)cc1[N+](=O)[O-],"inconclusive: 6.31 µM [inhibitor, single point]"
21,CN(CC(=O)Nc1ccccc1N1CCCC1)S(=O)(=O)c1ccc(F)cc1,inactive
22,CCOC(=O)C(NC(=O)c1ccccc1)(Nc1nnc(C)s1)C(F)(F)F (configuration not stated),"inconclusive: 3.98 µM [inhibitor, full curve]"
23,CCNC(=O)NC(=O)C(C)OC(=O)CCCc1nc2ccccc2s1 (configuration not stated),"inconclusive: 2.51 µM [inhibitor, full curve, poor fit]"
24,CCOC(=O)/C(=C/c1ccc(OC(=O)c2ccccc2)cc1)C(C)=O,inactive

row,Structure (SMILES),Potency
1,Cn1c(NNC(=O)C(c2ccccc2)c2ccccc2)cc(=O)n(C)c1=O,inactive
2,O=C(Nc1ccccc1)ON=C1c2ccccc2-c2ccccc21,"inconclusive: 1.26 µM [activator, full curve, poor fit]"
3,c1ccc(-c2cc(-c3ccccc3)n3ncnc3n2)cc1,"inconclusive: 14.1 µM [inhibitor, single point]"
4,COc1cccc(C(=O)N2CCCN(C)CC2)c1OC,"inconclusive: 31.6 µM [activator, single point]"
5,O=C(COC(=O)c1cc(S(=O)(=O)N2CCCCC2)ccc1N1CCOCC1)c1ccccc1,"inconclusive: 17.8 µM [inhibitor, single point]"
6,O=C(Nc1sc2c(c1C(=O)c1ccc(Cl)cc1)CCCC2)c1cccnc1,inactive
7,CC(=O)Nc1cccc(C(=O)/C=C/c2ccc(F)cc2)c1,"inconclusive: 6.31 µM [inhibitor, partial curve, poor fit]"
8,O=C(CCN1C(=O)S/C(=C/c2ccccc2)C1=O)Nc1ccc(O)c(C(=O)O)c1,inactive
9,CC(Sc1nnc(COc2ccc([N+](=O)[O-])cc2)n1C)C(=O)O (configuration not stated),inactive
10,CCC1CCC(C(=O)NNC(=O)c2cc(-c3ccco3)[nH]n2)CC1 (configuration not stated),inactive
11,CCOC(=O)N1CCC(NC(=O)c2ccc3c(c2)N(Cc2ccccc2)C(=O)c2ccccc2S3(=O)=O)CC1,inactive
12,COc1ccc(CCN2C(=O)C=CC2=O)cc1OC,"inconclusive: 35.5 µM [inhibitor, partial curve, poor fit]"
13,Cc1ccc(NC(=O)C2COc3ccccc3O2)nc1 (configuration not stated),inactive
14,Cc1ccc(N(CC(=O)NCC2CCCO2)C(=O)CNS(=O)(=O)c2ccc(Cl)cc2)cc1 (configuration not stated),"inconclusive: 0.562 µM [inhibitor, full curve, poor fit]"
15,O=C1NC(=O)c2c(Br)c(Br)c(Br)c(Br)c21,inactive
16,COc1ccc(-c2nn(CC(=O)NCCc3ccccc3)c(=S)n2C)cc1,"inconclusive: 25.1 µM [inhibitor, single point]"
17,O=C(c1coc(=O)c(Br)c1)N1CCC(C(O)(c2ccccc2)c2ccccc2)CC1,"inconclusive: 25.1 µM [inhibitor, single point]"
18,Cc1ccc(-c2csc(N(CCCN3CCOCC3)C(=O)c3ccco3)n2)cc1,"inconclusive: 16.4 µM [inhibitor, partial curve, poor fit]"
19,Cc1nn(-c2ccc(F)cc2)c(Cl)c1/C=C/C(=O)OCC(=O)Nc1ccc(F)cc1F,inactive
20,Cc1ccc(-c2noc(COc3ccc4c(c3)OCO4)n2)cc1,inactive
21,Cn1nc(-c2ccc(N3CCCCC3)c(NC(=O)c3ccco3)c2)c2ccccc2c1=O,"inactive and inconclusive: 3.98 µM [inhibitor, full curve, poor fit]"
22,COc1cc2c(cc1OC)C(COc1ccc3c(C)cc(=O)oc3c1)N(C(=O)c1ccc(C)cc1)CC2 (configuration not stated),"inconclusive: 2.51 µM [inhibitor, partial curve, poor fit]"
23,CC[C@]12c3[nH]c4ccc(OC)cc4c3CCN1C(=O)C(CC(=O)NCc1ccc(OC)c(OC)c1)C[C@@H]2C(=O)N1CCN(C(=O)C2CC2)CC1 (some centres not stated),inactive
24,COc1ccc(CNc2ccc(Cl)cc2)cc1Cn1ccnc1,"inconclusive: 35.5 µM [inhibitor, single point]"
